# Reference: PubChem BioAssay AID2685 (National Center for Advancing Translational Sciences (NCATS), 2010)
# This is one part of the list. These are further read-outs of the screen, such as a control signal, another cell line or another target. No call is given for them. The list favours compounds with an active or inconclusive main result. Potencies come from curve fits of mixed quality, noted in brackets.
# Assay: qHTS Assay for Lipid Storage Modulators in Drosophila S3 Cells;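 for cell number change: cells counted by Cell Tracker Red CMTPX staining in the red channel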
# Conditions: BODIPY lipid droplet fluorescence, 18-24 h; for cell number change: measured here: cell count max response, cells fed with added oleic acid
# Procedure, shortened: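 Drosophila S3 cells loaded with oleic acid (400 uM, as added) and compounds at several concentrations; lipid droplets imaged by 488-nm laser-scanning cytometry, 500–530 nm intensity and object ratio to cell channel. Percent activity normalized to 20 uM Triacsin C.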
# [1] = measured here: cell number channel AC50, cells fed with added oleic acid
# [2] = measured here: lipid fluorescence (Fed channel) AC50, cells fed with added oleic acid
SMILES,cell number change [%],AC50 [1],AC50 [2]
O=C(NCCCN1CCOCC1)c1ccc(Br)cc1,14.8,"0.00461 µM [rising, full curve, poor fit]","0.146 µM [rising, full curve, poor fit]"
CCOc1ccc(CCNC(=O)CN2C(=O)NC3(CCCc4ccccc43)C2=O)cc1OCC (stereo not given),-29.4,–,"8.2 µM [falling, partial curve]"
Cc1ccc(S(=O)(=O)NC(=NC2CCCCC2)c2ccc(Cl)cc2)cc1,5.04,–,–
CCOc1ccc(N2C(=O)CC(Sc3nc(C)cc(C)c3C#N)C2=O)cc1 (stereo not given),-3.12,–,"1.84 µM [rising, partial curve]"
C/C(=N\NC(=O)c1ccc(CSc2nc(C)cc(C)n2)cc1)c1ccco1,12.7,–,–
Cc1sc2nc(N)sc2c1C,-0.281,–,–
O=C1CC(N2CCN(c3ccccn3)CC2)C(=O)N1CC(c1ccccc1)c1ccccc1 (stereo not given),-36.8,"29.1 µM [falling, single point]",–
COc1cccc(S(=O)(=O)N2CCOCC2)c1,–,"0.517 µM [rising, full curve, poor fit]",–
Cc1nnc(SCC(=O)Nc2ncc3c(n2)CC(c2ccccc2)CC3=O)s1 (stereo not given),–,–,"6.51 µM [falling, partial curve, poor fit]"
COc1ccc(CCNC(=O)c2c(Cl)ccc(Cl)c2OC)cc1OC,8.77,–,"29.1 µM [rising, partial curve, poor fit]"
CCC(C)[C@H](NC(=O)C1CC(=O)N(c2ccc3c(c2)OCCO3)C1)C(=O)NC1CCCC1 (stereo not given in full),16.5,–,–
COc1cc(OC)cc(-c2nc(=S)n3ccsc3n2)c1,60.2,–,"29.1 µM [rising, single point]"
CC(C)c1cc(C(=O)O)n[nH]1,-48.8,"1.03 µM [falling, partial curve, poor fit]","6.51 µM [falling, single point]"
CN(C)c1ccc(C=Nc2ccccc2C(N)=O)cc1,-27.2,–,"18.4 µM [falling, partial curve]"
CC(C)(C)NC(=O)c1sccc1C(=O)O,-12.1,–,–
O=C(Nc1ccccc1Cl)c1ccc2c(=O)n3c(nc2c1)CCC3,16.6,–,–
COc1cc(C(=O)NCCCN2CCCC2=O)cc(Br)c1OCc1ccccc1,-8.43,–,"32.6 µM [rising, single point]"
COC(=O)C1=C(C(=O)c2ccc(C)cc2)C(c2ccc(O)c(OC)c2)n2nnnc2N1 (stereo not given),11.5,–,–
CCC(C)c1ccc(NC(=S)Nc2ccc(OC)cc2C)cc1 (stereo not given),-19.9,–,"7.31 µM [falling, partial curve]"
CCOC(=O)C[n+]1c(C)sc2ccc(OC)cc21,-9.62,"0.13 µM [rising, partial curve, poor fit]","0.13 µM [rising, full curve, poor fit]"
O=C(/C=C/c1ccc2c(c1)OCCCO2)c1ccccc1O,-44.3,"0.164 µM [falling, full curve, poor fit]","29.1 µM [falling, single point]"

# In the list so far, 2 contain a COOH group.
SMILES,cell number change [%],AC50 [1],AC50 [2]
CC(C)c1cc(C(=O)O)n[nH]1,-48.8,"1.03 µM [falling, partial curve, poor fit]","6.51 µM [falling, single point]"
CC(C)(C)NC(=O)c1sccc1C(=O)O,-12.1,–,–

# More structures

SMILES,cell number change [%],AC50 [1],AC50 [2]
O=C(CCC(=O)N1CCOCC1)Nc1ccc(Cl)c(Cl)c1,34,"35.5 µM [rising, single point]","2 µM [rising, partial curve]"
Cc1c(Cc2ccccc2)c(=O)oc2c(C)c(OCc3nn[nH]n3)ccc12,13.6,–,"29.1 µM [falling, single point]"
O=c1c2c3c(sc2nc2n1N=C(c1cccs1)CS2)CCCC3,27.5,–,"5.8 µM [falling, full curve, poor fit]"
CCOc1ncccc1C(=O)OCC(=O)N(CC(C)C)c1c(N)n(Cc2ccccc2)c(=O)[nH]c1=O,7.23,–,–
O=C(OCc1nc2ccsc2c(=O)[nH]1)c1ccccc1,1,–,–
O=C(NCc1cccnc1)c1ccccc1NS(=O)(=O)c1ccc(F)cc1,20.9,"4.11 µM [rising, partial curve, poor fit]","6.51 µM [rising, single point]"
CC(C)n1nnnc1SCC(=O)N1N=C(c2cccs2)CC1c1cccs1 (stereo not given),-8.97,–,–
CCNC(=O)CC1C(=O)N(c2cccc(C)c2)C(=O)N1CCC(C)C (stereo not given),18,–,–
CCOc1ccc(S(=O)(=O)N2CCCCC2)cc1NC(=O)c1c(CC)noc1C,6.78,"6.51 µM [rising, single point]",–
COc1cc(S(=O)(=O)N2CC(=O)Nc3ccccc32)ccc1NC(C)=O,7.92,–,–
CCOc1ncccc1C(=O)OCC(=O)NC(=O)c1ccccc1,9.21,–,"6.51 µM [falling, single point]"
COCCCN(C(C)=O)c1nc(-c2ccccc2)cs1,–,"3.66 µM [rising, single point]","0.82 µM [rising, single point]"
COc1ccc(CN2CCNC(=O)C2CC(=O)NCCC2=CCCCC2)c(F)c1 (stereo not given),–,–,"29.1 µM [falling, partial curve, poor fit]"
C/C(=C\c1ccc(N)cc1)c1nc2ccccc2[nH]1,-21.2,–,"5.8 µM [falling, partial curve, poor fit]"
COc1ccc(CNC(=O)CSc2nc3ccccc3n2C(C)=O)cc1,10.9,"1.64 µM [rising, partial curve, poor fit]","29.1 µM [rising, single point]"
CCOc1ncccc1C(=O)Nc1ccc(S(=O)(=O)Nc2nccs2)cc1,10.2,–,"5.17 µM [rising, partial curve, poor fit]"
COc1ccc(NC(=O)c2oc3ccccc3c2NC(=O)c2ccco2)cc1,95.2,"1.84 µM [rising, full curve]","16.4 µM [rising, partial curve]"
C[C@H](NC(=O)c1nc[nH]c1C(=O)N[C@@H](Cc1ccccc1)C(=O)OCc1ccccc1)C(=O)OCc1ccccc1,151,"20.6 µM [rising, single point]",–
CCCCn1c(N)c(N(CC)C(=O)c2ccccc2C)c(=O)[nH]c1=O,17,–,–
CCCCN(C)S(=O)(=O)c1ccc(C(=O)N(CCN(C)C)c2nc3ccc(C)cc3s2)cc1,0.726,–,–
Cc1nc2cccc(C(=O)NCc3ccccc3)c2o1,9.84,–,"23.1 µM [rising, single point]"

SMILES,cell number change [%],AC50 [1],AC50 [2]
CCc1nnc(NC(=O)Nc2ccccc2OC)s1,39.7,"23.1 µM [rising, single point]","0.651 µM [rising, single point]"
Cn1c(-c2csc(-c3cccc(C(F)(F)F)c3)n2)n[nH]c1=S,-12.4,"6.51 µM [falling, single point]","6.51 µM [falling, single point]"
O=c1c([N+](=O)[O-])c(NCCN2CCCCCC2)c2ccccc2n1-c1ccccc1,83.3,"29.1 µM [rising, single point]",–
N#Cc1ccccc1Sc1ccccc1C(=O)OCC(N)=O,–,–,"0.651 µM [rising, single point]"
CCOC(=O)C1CCN(c2ccc([N+](=O)[O-])c(C(C)=O)c2)CC1,-11.4,–,–
COc1cc(NS(=O)(=O)c2ccc(NC(=S)NC(=O)C(C)(C)C)cc2)nc(OC)n1,-108,"25.9 µM [falling, partial curve]","16.4 µM [falling, partial curve]"
CCOc1ccc(Nc2c3ccccc3nc3ccccc23)cc1,-45.9,"16.4 µM [falling, single point]","20.6 µM [falling, single point]"
CN(C)C(=O)c1ccc(NC(=O)COc2ccc([N+](=O)[O-])cc2)cc1,47.7,"29.1 µM [rising, single point]","29.1 µM [rising, single point]"
COc1ccc(NC(=O)C2CCCN2C(=O)NC2CCCCC2)c(OC)c1 (stereo not given),9.83,–,"4.11 µM [rising, single point]"
Cc1ccc(-c2nc(CN(C)C)cc(CN(C)C)c2O)cc1,-59.4,"29.1 µM [falling, single point]","0.146 µM [falling, full curve, poor fit]"
CCCN(CC(=O)Nc1ccccc1C)C(=O)C1CCN(S(=O)(=O)c2ccccc2C(F)(F)F)CC1,–,"2.59 µM [rising, partial curve]",–
O=C(CC1Oc2ccccc2NC1=O)NCCCN1CCCC1=O (stereo not given),9.4,–,–
O=C(NC1CC1)C1CCN(C2CCN(C(=O)CSc3ccccc3)CC2)CC1,27.6,–,–
O=C(N/N=C/c1cc2ccccc2nc1Cl)c1ccncc1,29.3,"0.366 µM [rising, full curve, poor fit]",–
S=c1[nH]nc(CSCc2ccccc2Cl)n1-c1ccccc1,31.6,"8.2 µM [rising, partial curve, poor fit]","20.6 µM [rising, single point]"
[O-][n+]1onc2c1CCc1c-2nc(-c2ccccc2)n1OCc1ccccc1,24.7,–,"29.1 µM [rising, single point]"
CC1Cc2cc(/C(O)=C3/C(=O)C(=O)N(CCN4CCOCC4)C3c3cccc(O)c3)ccc2O1 (stereo not given),2.86,–,"0.259 µM [falling, partial curve, poor fit]"
COc1ccc(N2CC(O)=C(c3nc(-c4ccc(Br)cc4)cs3)C2=N)cc1,71,"18.4 µM [rising, single point]","29.1 µM [rising, single point]"
CC(C)(C)Nc1nc(C(N)=O)nc(N2CCOCC2)n1,–,"0.82 µM [rising, single point]",–
